Measured values reported in paper PMC9612522.
Results are given in words; binding and its absence hold for the method and conditions named. Binding seen in cells or lysates may run through a third protein. Some binding calls cover weakened binding; strength is not graded here. Tags and fused reporters may be left off the sequences shown.

The chains behind the UniProt entries cited, without tags or fusion partners.
UniProt O96013: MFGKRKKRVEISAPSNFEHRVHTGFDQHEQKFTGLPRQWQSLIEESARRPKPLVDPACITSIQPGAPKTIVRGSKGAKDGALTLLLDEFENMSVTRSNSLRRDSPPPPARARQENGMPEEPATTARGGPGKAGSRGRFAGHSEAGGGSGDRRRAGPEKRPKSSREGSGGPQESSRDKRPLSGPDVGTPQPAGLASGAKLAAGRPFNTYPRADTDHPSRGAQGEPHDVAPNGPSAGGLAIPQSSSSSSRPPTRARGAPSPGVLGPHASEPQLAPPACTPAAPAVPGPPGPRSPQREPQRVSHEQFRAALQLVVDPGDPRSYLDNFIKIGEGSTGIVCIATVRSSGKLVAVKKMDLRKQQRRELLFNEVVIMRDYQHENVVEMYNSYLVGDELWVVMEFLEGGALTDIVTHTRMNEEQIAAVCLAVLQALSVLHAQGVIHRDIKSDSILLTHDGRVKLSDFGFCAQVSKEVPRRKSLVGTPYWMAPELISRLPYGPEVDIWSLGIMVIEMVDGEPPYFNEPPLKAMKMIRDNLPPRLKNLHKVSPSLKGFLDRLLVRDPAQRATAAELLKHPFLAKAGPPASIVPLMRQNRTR

B1: EGFP-Inka2 (protein, UniProt Q80VY2-2 1-281)
chain: MSMKEVGDGLQDQMNCMMGALQELKLLQVQTALEQLEISGGTPTFSCPESSQEQPECPRWQGSGGPAGPAAWTSSSQPSFDSSPKLPCRRSVCGKELAVLPKTQLPEEHQSCTQQGTEWVEPDDWTSTLMSRGRNRQPLVLGDNVFADLVGNWLDLPELEKGGEKGETGGSIEPKGEKGQSRELGRKFALTANIFRKFLRSVRPDRDRLLKEKPGWMTPMVSESRAGRSKKVKKRSLSKGSGRFPFSSTGEPRHIETPATSSPKALEPSCRGFDINTAVWV
B2: EGFP-Inka1 (protein, UniProt Q9CX62 1-282)
chain: MHSARLDSFLSQLRWELLCARDTGSPPMSGPLQPKPRTDQNVQPKRQFRASDVLEEDSVCCVEEEEEEGLVAEDKGLPLGCPREHALDWDSGFSEVSGSTWREEEPSVPQRQAPRERPPHSQRFSVSDIPMRSRAAVTNIPPAHRPRPKSTPDACLEHWQGLEAEDWTAALLNRGRSRQPLVLGDNCFADLVHNWMELPEATSEGSDGDVPRARARPPQFLLGLSEQLRRRLARARRTAMASKRLSCPPRSEPDLPADISRFAALMNCRSRQPIIYNDVSYL

Target: Flag-Pak4 (UniProt O96013)
Experiment: co-IP; HEK293T cells (the legend says HEK293) co-expressing Flag-Pak4 and EGFP fusions; IP with anti-GFP or anti-Flag, immunoblot with anti-GFP or anti-Flag; lysis in 50 mM Tris-HCl pH 7.5, 150 mM NaCl, 2 mM EDTA, 1% NP-40, 4°C

Row | binding | Binder
1 | binds | B1
2 | binds | B2
